Measurements reported in PubChem BioAssay AID652272 (Drosophila RNAi Screening Center, 2013)

- Assay: 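Genome-wide knock-down search for components of Hedgehog signalling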 (primary screen)
- Cells: Drosophila clone 8 (Cl8) cells
- Reagents: long dsRNA against Drosophila genes
- Measurement: 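Firefly light from a Hedgehog-responsive ptc promoter reporter and Renilla reference light, both read on a plate reader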
- Scale: firefly Hh reporter signal: higher = more ptc reporter light; Renilla reference signal: higher = more Renilla control light
- Active means: 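Called a hit if the two-replicate mean z-score lies below -2 or above +3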
- Calls: active = hit: reporter lowered or raised; inactive = not a hit
In all, the deposit lists about 21,000 reagents; this is a random part of those with a known target gene and a result. In the full data, 503 (2.4%) were called active. 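Raw plate light values, not normalised; calls rest on replicate z-scores that were not deposited; hits include reporter decreases as well as increases.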 Reagents against one gene are numbered here. A plus sign joins genes that one reagent is predicted to hit. Not stated in the record: the amount of reagent, the time to read-out.

no.	target gene	reagent	firefly Hh reporter signal, replicate 1	firefly Hh reporter signal, replicate 2	firefly Hh reporter signal, replicate 3	Renilla reference signal, replicate 1	Renilla reference signal, replicate 2	outcome
1	CG17601	1	66150	2.05e5		2232	8678	inactive
2	abd-A (abdominal A)	1	37467	1.34e5		6812	3083	inactive
3	abd-A (abdominal A)	2	23905	10880		1173	612	active
4	CG42841	1	90507	1.38e5		2785	5848	inactive
5	HemK2 + Snapin	1	1.06e5	62649		4528	2450	inactive
6	HemK2 + Snapin	2	1.34e5	94237		3008	2304	inactive
7	Lsm10	1	73393	48960		1600	3622	inactive
8	Ufsp1 (UFM1 specific peptidase 1)	1	1.20e5	2.73e5		3026	11488	inactive
9	CYTB (retired record)	1	1.16e5	2.34e5		4106	10125	inactive
10	CG5188	1	1.19e5	79921		3043	6028	inactive
11	mi (minus)	1	29993	20546		1736	1319	active
12	Pen (Pendulin)	1	68880	37991		2779	1696	inactive
13	tra2 (transformer 2)	1	1.16e5	80864		4883	3024	inactive
14	Vps37B (Vacuolar protein sorting 37B)	1	1.47e5	67467		5248	2576	inactive
15	CG9641	1	1.19e5	1.13e5		5040	4905	inactive
16	Pp2C1 (Protein phosphatase 2C)	1	80770	59586		1732	1392	inactive
17	Obsc (Obscurin)	1	6.63e5	1.04e5		4397	4397	inactive
18	Obsc (Obscurin)	2	75639	92378		2931	3543	inactive
19	Obsc (Obscurin)	3	92050	29776		2632	3628	inactive
20	Obsc (Obscurin)	4	53616	68486		1297	4813	inactive

Reformatted: 5 of the entries above
CG17601
- firefly Hh reporter signal, replicate 1: 66150
- firefly Hh reporter signal, replicate 2: 2.05e5
- Renilla reference signal, replicate 1: 2232
- Renilla reference signal, replicate 2: 8678
- outcome: inactive

abd-A (abdominal A) #1
- firefly Hh reporter signal, replicate 1: 37467
- firefly Hh reporter signal, replicate 2: 1.34e5
- Renilla reference signal, replicate 1: 6812
- Renilla reference signal, replicate 2: 3083
- outcome: inactive

abd-A (abdominal A) #2
- firefly Hh reporter signal, replicate 1: 23905
- firefly Hh reporter signal, replicate 2: 10880
- Renilla reference signal, replicate 1: 1173
- Renilla reference signal, replicate 2: 612
- outcome: active

CG42841
- firefly Hh reporter signal, replicate 1: 90507
- firefly Hh reporter signal, replicate 2: 1.38e5
- Renilla reference signal, replicate 1: 2785
- Renilla reference signal, replicate 2: 5848
- outcome: inactive

HemK2 + Snapin #1
- firefly Hh reporter signal, replicate 1: 1.06e5
- firefly Hh reporter signal, replicate 2: 62649
- Renilla reference signal, replicate 1: 4528
- Renilla reference signal, replicate 2: 2450
- outcome: inactive

Additional results follow:
no.	target gene	reagent	firefly Hh reporter signal, replicate 1	firefly Hh reporter signal, replicate 2	firefly Hh reporter signal, replicate 3	Renilla reference signal, replicate 1	Renilla reference signal, replicate 2	outcome
21	botv	1	1.12e5	88242		4549	3109	inactive
22	Thor	1	1.18e5	89937		5664	3865	inactive
23	asRNA:CR42547 + CG15674	1	77712	43825		2086	4309	inactive
24	Hat1 (Histone acetyltransferase 1)	1	77105	1.04e5		3044	3157	inactive
25	TMEM216 + CG11760	1	1.33e5	1.16e5		5793	4533	inactive
26	Elba2 (Early boundary activity 2)	1	88696	57236		3799	2432	inactive
27	CG31735	1	82113	1.81e5		2241	7988	inactive
28	Pfdn4 (Prefoldin 4)	1	74360	74614		8380	5301	inactive
29	CG1663	1	1.74e5	65483		3528	4432	inactive
30	Mzt1 (Mitotic spindle organizing protein 1)	1	85671	1.53e5		2704	6005	inactive
31	CG42673	1	1.00e5	1.78e5		2778	7556	inactive
32	CG42673	2	30451	57033		1328	3392	active
33	CG42673	3	28736	43632	43864	4544	3434	inactive
34	CG42673	4	12217	39978	59137	3666	4410	inactive
35	CG42673	5	53511	71149	89424	4444	5980	inactive
36	CG42673	6	31380	67213	67014	5036	5003	inactive
37	CG9876	1	1.23e5	74817		3587	6384	inactive
38	Oatp74D (Organic anion transporting polypeptide 74D)	1	3.86e5			7474		inactive
39	Oatp74D (Organic anion transporting polypeptide 74D)	2	1.19e5	81629		4304	3271	inactive
40	CG7567	1	1.17e5	97876		4384	2851	inactive
41	sfl (sulfateless)	1	1.01e5	2.41e5		1969	8256	inactive
42	sfl (sulfateless)	2	1.38e5	2.46e5		2928	8701	inactive
43	Dna2 (DNA replication helicase/nuclease 2)	1	60250	79944		1429	1782	inactive
44	chico	1	63760	30891		3186	1483	inactive
45	POSH (Plenty of SH3s)	1	1.10e5	67361		3392	5317	inactive
46	Osi12 (Osiris 12)	1	84963	96375		3248	2824	inactive
47	Mlh1	1	76484	77340		3340	3090	inactive
48	CG8526	1	98832	1.74e5		3033	5192	inactive
49	CG10353	1	79769	2.01e5		1339	8176	inactive
50	EloB (Elongin B)	1	6.45e5	1.21e5		36855	3404	inactive
51	Sytalpha (Synaptotagmin alpha)	1	1.10e5	37906		2700	4183	inactive
52	CG11298	1	87427	79548		2288	6267	inactive
53	CG6071	1	42784	47237	67611	4004	4128	inactive
54	Vlet (Valette)	1	1.02e5	70128		2393	1786	inactive
55	Ras64B (Ras oncogene at 64B)	1	78519	32885		2832	2592	inactive
56	wry (weary)	1	1.20e5	77890		2835	2168	inactive
57	wry (weary)	2	2.38e5	1.50e5		5380	3975	inactive
